In the supplement of paper PMC12823440, “Inhibitors supercharge kinase turnover through native proteolytic circuits” (Nature, 2025):
This is one part of the list. Hit calls seldom repeat between salt and free forms of one compound.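 Kinases were expressed as nanoluciferase fusions in K562 cells and luminescence was read every 4 h between 2 and 18 h as percent of control, DMSO set to 100% and a positive control to 0%. A time point counts as decreased when the signal drops significantly (2 sigma). The hit call is the authors' own, does not follow from the count of time points alone, and its rule is not shown.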

By UniProt entry, the sequences of proteins in these tests, tags left out.
UniProt P29317, whole entry: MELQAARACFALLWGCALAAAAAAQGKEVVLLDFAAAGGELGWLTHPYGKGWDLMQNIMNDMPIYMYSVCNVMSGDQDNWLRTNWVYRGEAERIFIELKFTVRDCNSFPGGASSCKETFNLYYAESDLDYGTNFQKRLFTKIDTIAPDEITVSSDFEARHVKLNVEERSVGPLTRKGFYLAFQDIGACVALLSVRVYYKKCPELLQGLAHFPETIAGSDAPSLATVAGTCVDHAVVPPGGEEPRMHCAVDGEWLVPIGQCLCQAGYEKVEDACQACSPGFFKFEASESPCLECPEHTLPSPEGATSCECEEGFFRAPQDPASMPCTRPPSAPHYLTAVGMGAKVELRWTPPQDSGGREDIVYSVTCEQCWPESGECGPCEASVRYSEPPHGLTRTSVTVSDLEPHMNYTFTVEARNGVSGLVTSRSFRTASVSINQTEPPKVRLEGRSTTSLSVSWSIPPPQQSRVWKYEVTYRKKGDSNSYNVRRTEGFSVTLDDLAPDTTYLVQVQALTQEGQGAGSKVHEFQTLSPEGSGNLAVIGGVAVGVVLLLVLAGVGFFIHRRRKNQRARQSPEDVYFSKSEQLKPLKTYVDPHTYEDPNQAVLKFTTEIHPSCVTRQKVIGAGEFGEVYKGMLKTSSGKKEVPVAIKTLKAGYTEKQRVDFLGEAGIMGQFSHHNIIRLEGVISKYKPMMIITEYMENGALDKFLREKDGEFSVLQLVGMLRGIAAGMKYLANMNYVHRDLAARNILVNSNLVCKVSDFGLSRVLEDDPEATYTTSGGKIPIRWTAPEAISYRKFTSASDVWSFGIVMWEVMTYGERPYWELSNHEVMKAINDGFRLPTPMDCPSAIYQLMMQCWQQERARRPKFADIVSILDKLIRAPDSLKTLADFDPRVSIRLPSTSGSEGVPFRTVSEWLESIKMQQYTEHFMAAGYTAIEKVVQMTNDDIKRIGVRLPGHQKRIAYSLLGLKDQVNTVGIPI
UniProt P21860, whole entry: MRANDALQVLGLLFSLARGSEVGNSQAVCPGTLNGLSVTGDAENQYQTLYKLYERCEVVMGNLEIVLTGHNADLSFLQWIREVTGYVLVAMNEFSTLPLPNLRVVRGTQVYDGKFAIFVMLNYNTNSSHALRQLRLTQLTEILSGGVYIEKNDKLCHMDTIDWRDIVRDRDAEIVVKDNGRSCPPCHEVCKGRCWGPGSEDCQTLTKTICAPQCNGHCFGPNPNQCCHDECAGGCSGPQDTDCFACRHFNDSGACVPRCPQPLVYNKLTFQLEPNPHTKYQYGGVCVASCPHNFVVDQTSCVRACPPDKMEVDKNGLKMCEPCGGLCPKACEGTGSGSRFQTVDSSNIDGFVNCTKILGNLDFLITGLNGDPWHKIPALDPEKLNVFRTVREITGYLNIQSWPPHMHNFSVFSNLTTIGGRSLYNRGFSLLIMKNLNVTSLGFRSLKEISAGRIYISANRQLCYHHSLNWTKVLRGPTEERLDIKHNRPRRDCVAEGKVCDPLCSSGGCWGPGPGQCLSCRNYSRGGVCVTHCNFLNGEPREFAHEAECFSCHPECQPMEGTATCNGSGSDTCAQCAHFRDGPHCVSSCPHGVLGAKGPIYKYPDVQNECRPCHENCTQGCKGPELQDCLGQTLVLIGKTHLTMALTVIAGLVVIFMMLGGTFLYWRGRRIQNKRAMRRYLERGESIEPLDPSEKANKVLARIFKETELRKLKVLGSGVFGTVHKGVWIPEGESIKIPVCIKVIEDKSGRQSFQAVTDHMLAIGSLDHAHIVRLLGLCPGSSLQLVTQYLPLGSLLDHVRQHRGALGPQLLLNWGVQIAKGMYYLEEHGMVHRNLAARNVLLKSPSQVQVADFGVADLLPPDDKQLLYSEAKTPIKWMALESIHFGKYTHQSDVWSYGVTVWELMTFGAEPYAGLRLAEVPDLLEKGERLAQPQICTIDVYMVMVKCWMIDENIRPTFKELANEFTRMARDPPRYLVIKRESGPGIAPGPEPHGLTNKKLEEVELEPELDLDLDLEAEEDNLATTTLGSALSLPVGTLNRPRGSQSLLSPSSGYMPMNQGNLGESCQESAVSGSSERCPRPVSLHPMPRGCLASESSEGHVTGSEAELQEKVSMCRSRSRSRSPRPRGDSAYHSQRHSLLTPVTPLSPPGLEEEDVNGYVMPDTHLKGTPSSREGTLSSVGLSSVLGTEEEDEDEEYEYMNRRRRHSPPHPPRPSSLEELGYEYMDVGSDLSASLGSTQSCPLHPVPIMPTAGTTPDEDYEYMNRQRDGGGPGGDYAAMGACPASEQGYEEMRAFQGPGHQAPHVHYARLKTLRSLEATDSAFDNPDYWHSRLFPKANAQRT
UniProt Q15303, whole entry R711C: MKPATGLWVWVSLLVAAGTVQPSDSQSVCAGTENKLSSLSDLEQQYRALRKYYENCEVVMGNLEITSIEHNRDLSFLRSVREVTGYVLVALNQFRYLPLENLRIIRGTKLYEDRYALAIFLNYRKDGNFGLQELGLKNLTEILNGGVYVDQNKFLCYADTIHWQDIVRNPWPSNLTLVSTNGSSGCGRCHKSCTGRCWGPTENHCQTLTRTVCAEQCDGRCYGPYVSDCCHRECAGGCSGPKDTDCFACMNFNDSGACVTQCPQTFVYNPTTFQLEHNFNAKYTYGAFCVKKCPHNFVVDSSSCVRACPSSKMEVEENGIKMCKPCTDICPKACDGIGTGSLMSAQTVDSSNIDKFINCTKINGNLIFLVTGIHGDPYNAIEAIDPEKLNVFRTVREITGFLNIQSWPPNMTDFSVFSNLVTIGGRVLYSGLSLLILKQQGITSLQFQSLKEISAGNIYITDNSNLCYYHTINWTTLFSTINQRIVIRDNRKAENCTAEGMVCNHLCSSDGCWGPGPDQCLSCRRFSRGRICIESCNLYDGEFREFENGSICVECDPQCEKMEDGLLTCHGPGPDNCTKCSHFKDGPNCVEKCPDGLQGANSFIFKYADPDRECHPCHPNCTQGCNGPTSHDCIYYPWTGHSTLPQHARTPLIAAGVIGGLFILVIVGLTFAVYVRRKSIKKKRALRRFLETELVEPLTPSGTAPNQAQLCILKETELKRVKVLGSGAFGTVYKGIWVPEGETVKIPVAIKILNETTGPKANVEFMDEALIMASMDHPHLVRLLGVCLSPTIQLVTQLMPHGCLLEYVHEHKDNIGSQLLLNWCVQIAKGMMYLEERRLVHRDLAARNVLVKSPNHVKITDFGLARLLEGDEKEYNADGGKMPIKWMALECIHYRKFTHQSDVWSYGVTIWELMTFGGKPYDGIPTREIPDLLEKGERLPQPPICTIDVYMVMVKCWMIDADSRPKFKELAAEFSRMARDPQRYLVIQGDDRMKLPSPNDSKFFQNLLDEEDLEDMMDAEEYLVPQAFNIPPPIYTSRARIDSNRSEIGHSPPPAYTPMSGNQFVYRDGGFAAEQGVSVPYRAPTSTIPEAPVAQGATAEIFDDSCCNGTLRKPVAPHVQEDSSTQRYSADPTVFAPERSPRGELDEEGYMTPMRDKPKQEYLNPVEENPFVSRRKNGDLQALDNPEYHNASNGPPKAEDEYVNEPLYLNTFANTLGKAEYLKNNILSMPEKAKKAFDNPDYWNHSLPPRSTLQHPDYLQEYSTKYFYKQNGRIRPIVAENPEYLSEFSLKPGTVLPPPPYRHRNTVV

How the values were obtained:
Experiment in all cases: kinase-Nluc reporter destabilization hit call (1 = scored as downregulated) (binary); higher = compound decreases kinase abundance
Details in all cases: K562; 2-18 h
[1] = molecular target: EGFR (UniProt P00533)
[2] = molecular target: EGFR_G719S (UniProt P00533)
[3] = molecular target: EGFR_G719S_T790M (UniProt P00533)
[4] = molecular target: EGFR_L718V (UniProt P00533)
[5] = molecular target: EGFR_L858R (UniProt P00533)
[6] = molecular target: EGFR_L861Q (UniProt P00533)
[7] = molecular target: EGFR_T790M (UniProt P00533)
[8] = molecular target: EPHA2 (UniProt P29317)
[9] = molecular target: ERBB3 (UniProt P21860)
[10] = molecular target: ERBB4_R711C (clone: ERBB4_mut) (UniProt Q15303)

Measured: kinase-Nluc reporter destabilization hit call

CCN(CCCOc1ccc2c(Nc3cc(CC(=O)Nc4cccc(F)c4)[nH]n3)ncnc2c1)CCOP(=O)(O)O [Barasertib] (10 µM)
inactive: [1] 0 | [2] 0 | [3] 0 | [4] 0 | [5] 0 | [6] 0 | [7] 0 | [8] 0 | [9] 0 | [10] 0

COCCOc1cc2nccc(Nc3n[nH]c(C)c3C)c2cc1S(=O)(=O)C(C)(C)C [RIP2 kinase inhibitor 2] (2.5 µM)
inactive: [1] 0 | [2] 0 | [3] 0 | [4] 0 | [5] 0 | [6] 0 | [7] 0 | [8] 0 | [9] 0 | [10] 0

COCCNCCc1cccc(Nc2ncc3c(n2)-c2ccccc2[C@H](c2ccccc2F)C3)c1 [Derazantinib] (2.5 µM)
inactive: [1] 0 | [2] 0 | [3] 0 | [4] 0 | [5] 0 | [6] 0 | [7] 0 | [8] 0 | [9] 0 | [10] 0

COc1cc2ncnc(Nc3cccc(O)c3)c2cc1OC (10 µM)
inactive: [1] 0 | [2] 0 | [3] 0 | [4] 0 | [5] 0 | [6] 0 | [7] 0 | [8] 0 | [9] 0 | [10] 0

No new results follow: 2 of the compounds above.
COCCNCCc1cccc(Nc2ncc3c(n2)-c2ccccc2[C@H](c2ccccc2F)C3)c1 [Derazantinib] (2.5 µM)
inactive: [1] 0 | [2] 0 | [3] 0 | [4] 0 | [5] 0 | [6] 0 | [7] 0 | [8] 0 | [9] 0 | [10] 0

COc1cc2ncnc(Nc3cccc(O)c3)c2cc1OC (10 µM)
inactive: [1] 0 | [2] 0 | [3] 0 | [4] 0 | [5] 0 | [6] 0 | [7] 0 | [8] 0 | [9] 0 | [10] 0

(further entries)

CCCS(=O)(=O)Nc1ccc(F)c(C(=O)c2c[nH]c3ncc(Cl)cc23)c1F (10 µM)
inactive: [1] 0 | [2] 0 | [3] 0 | [4] 0 | [5] 0 | [6] 0 | [7] 0 | [8] 0 | [9] 0 | [10] 0

CN(C)Cc1ccc(-c2cnn3c(-c4cccc(NC(=O)c5cccc(C(F)(F)F)c5)c4)ccnc23)cc1 (2.5 µM)
inactive: [1] 0 | [2] 0 | [3] 0 | [4] 0 | [5] 0 | [6] 0 | [7] 0 | [8] 0 | [9] 0 | [10] 0

C[C@H](CN(C)C)Oc1nc(Nc2cc3cccc(Cl)c3cn2)cnc1C#N (10 µM)
inactive: [1] 0 | [2] 0 | [3] 0 | [4] 0 | [5] 0 | [6] 0 | [7] 0 | [8] 0 | [9] 0 | [10] 0

NC(=O)c1ccc(-c2nc(-c3ccccn3)c(-c3ccc4c(c3)OCO4)[nH]2)cc1 (10 µM)
inactive: [1] 0 | [2] 0 | [3] 0 | [4] 0 | [5] 0 | [6] 0 | [7] 0 | [8] 0 | [9] 0 | [10] 0

CCCn1cnc2c(NCc3ccccc3)nc(NC(CC)CO)nc21 (stereo unspecified) [Ca2+ channel agonist 1] (2.5 µM)
inactive: [1] 0 | [2] 0 | [3] 0 | [4] 0 | [5] 0 | [6] 0 | [7] 0 | [8] 0 | [9] 0 | [10] 0

Nc1nc(OCC2CCCCC2)c2[nH]cnc2n1 (10 µM)
inactive: [1] 0 | [2] 0 | [3] 0 | [4] 0 | [5] 0 | [6] 0 | [7] 0 | [8] 0 | [9] 0 | [10] 0

COc1cc(N2CCC(N)CC2)ccc1Nc1ncc(Cl)c(-c2c[nH]c3ccccc23)n1 (2.5 µM)
inactive: [1] 0 | [2] 0 | [3] 0 | [4] 0 | [5] 0 | [6] 0 | [7] 0 | [8] 0 | [9] 0 | [10] 0

C=CC(=O)N[C@H]1COC[C@H]1Nc1ncc2cc(-c3c(Cl)c(OC)cc(OC)c3Cl)c(=O)n(C)c2n1 (10 µM)
inactive: [1] 0 | [2] 0 | [3] 0 | [4] 0 | [5] 0 | [6] 0 | [7] 0 | [8] 0 | [9] 0 | [10] 0

O=C(NOC[C@H](O)CO)c1ccc(F)c(F)c1Nc1ccc(I)cc1F (2.5 µM)
inactive: [1] 0 | [2] 0 | [3] 0 | [4] 0 | [5] 0 | [6] 0 | [7] 0 | [8] 0 | [9] 0 | [10] 0

COc1ccc2c(C(=O)Nc3ccc(NC(=O)c4nn(C5CCN(C(=O)CC(C)(C)C#N)CC5)c5ccc(F)cc45)cc3Cl)cnn2c1 [Src Inhibitor 3] (2.5 µM)
inactive: [1] 0 | [2] 0 | [3] 0 | [4] 0 | [5] 0 | [6] 0 | [7] 0 | [8] 0 | [9] 0 | [10] 0

C=CC(=O)N1C[C@H](Nc2ncnc3[nH]ccc23)CC[C@@H]1C [Ritlecitinib] (10 µM)
inactive: [1] 0 | [2] 0 | [3] 0 | [4] 0 | [5] 0 | [6] 0 | [7] 0 | [8] 0 | [9] 0 | [10] 0

COc1ccc(F)c(F)c1C(=O)c1cnc(NC2CCN(S(C)(=O)=O)CC2)nc1N (2.5 µM)
inactive: [1] 0 | [2] 0 | [3] 0 | [4] 0 | [5] 0 | [6] 0 | [7] 0 | [8] 0 | [9] 0 | [10] 0

CNC(=O)c1cc(Oc2ccc(NC(=O)Nc3cc(C(C)(C)C)nn3-c3ccc4ncccc4c3)c(F)c2)ccn1 [Rebastinib] (2.5 µM)
inactive: [1] 0 | [2] 0 | [3] 0 | [4] 0 | [5] 0 | [6] 0 | [7] 0 | [8] 0 | [9] 0 | [10] 0

O=C(Nc1ccc(-c2ccnc(Nc3ccc(N4CCOCC4)cc3)n2)cc1)C1CCCN1 (stereo unspecified) (10 µM)
inactive: [1] 0 | [2] 0 | [3] 0 | [4] 0 | [5] 0 | [6] 0 | [7] 0 | [8] 0 | [9] 0 | [10] 0

CC(C)(C)c1nc2c3cc[nH]c(=O)c3c3cc(F)ccc3c2[nH]1 [Pyridone 6] (10 µM)
inactive: [1] 0 | [2] 0 | [3] 0 | [4] 0 | [5] 0 | [6] 0 | [7] 0 | [8] 0 | [9] 0 | [10] 0

O=c1oc2c(C3OCCCO3)c(O)ccc2c2c1CNCC2 (10 µM)
inactive: [1] 0 | [2] 0 | [3] 0 | [4] 0 | [5] 0 | [6] 0 | [7] 0 | [8] 0 | [9] 0 | [10] 0

Cc1ccc(NC(=O)c2cccc(N(C)C)c2)cc1NC(=O)c1ccc(O)cc1 (10 µM)
inactive: [1] 0 | [2] 0 | [3] 0 | [4] 0 | [5] 0 | [6] 0 | [7] 0 | [8] 0 | [9] 0 | [10] 0

Cc1nc(-c2cnc(NC(C)C)n(C)c2=O)ccc1Oc1ccnc(-c2cnn(C)c2)c1 (2.5 µM)
inactive: [1] 0 | [2] 0 | [3] 0 | [4] 0 | [5] 0 | [6] 0 | [7] 0 | [8] 0 | [9] 0 | [10] 0

CC(C)CC(=O)Nc1n[nH]c2c1CN(C(=O)C1CCN(C)CC1)C2(C)C (2.5 µM)
inactive: [8] 0 | [9] 0 | [10] 0

Cn1c(=O)n(-c2ccc(C(C)(C)C#N)cc2)c2c3cc(-c4cnc5ccccc5c4)ccc3ncc21 [Dactolisib (Tosylate)] (10 µM)
inactive: [1] 0 | [2] 0 | [3] 0 | [4] 0 | [5] 0 | [6] 0 | [7] 0 | [8] 0 | [9] 0 | [10] 0

Oc1cc(O)cc(/C=C/c2ccc(O)c(O)c2)c1 [Piceatannol] (10 µM)
inactive: [1] 0 | [2] 0 | [3] 0 | [4] 0 | [5] 0 | [6] 0 | [7] 0 | [8] 0 | [9] 0 | [10] 0

CNC(=O)c1cccc(-c2ccc3c(N4CCOC[C@@H]4C)nc(N4CCOC[C@@H]4C)nc3n2)c1 [Vistusertib] (2.5 µM)
inactive: [1] 0 | [2] 0 | [3] 0 | [4] 0 | [5] 0 | [6] 0 | [7] 0 | [8] 0 | [9] 0 | [10] 0

CN1CCN(C2CCN(C(=O)Nc3cc(Oc4ccc(NC(=O)C5(C(=O)Nc6ccc(F)cc6)CC5)c(F)c4)ccn3)CC2)CC1 [Golvatinib] (2.5 µM)
inactive: [1] 0 | [2] 0 | [3] 0 | [4] 0 | [5] 0 | [6] 0 | [7] 0 | [9] 0 | [10] 0

FC(F)(F)c1ccc(CNc2ccc(Cc3c[nH]c4ncc(Cl)cc34)cn2)cc1 (10 µM)
inactive: [1] 0 | [2] 0 | [3] 0 | [4] 0 | [5] 0 | [6] 0 | [8] 0 | [9] 0 | [10] 0

Nc1nc(N)c(N=O)c(OCC2CCCCC2)n1 (10 µM)
inactive: [1] 0 | [2] 0 | [3] 0 | [4] 0 | [5] 0 | [6] 0 | [7] 0 | [8] 0 | [9] 0 | [10] 0
